Values quoted from earlier work as cited in patent US12076313B2 (CELISTA PHARMACEUTICALS LLC, priority 2020, dated 2024).
For at least one compound, name, drawing or mass did not settle the structure.

Tested on: COVID-19
Conditions: early clinical trials; reduced from 15 days; cited from earlier work

## CCC(CC)COC(=O)[C@H](C)N[P@](=O)(OC[C@H]1O[C@@](C#N)(c2ccc3c(N)ncnn23)[C@H](O)[C@@H]1O)Oc1ccccc1 [Remdesivir]
  hospital stay: 11 days
